The supplement of paper PMC10849652
The other results are listed elsewhere or left out.

Amino acid sequences for entries named in this document (tags omitted). A change or cut given only in a name is not applied to a line headed by its entry.
UniProt O60287: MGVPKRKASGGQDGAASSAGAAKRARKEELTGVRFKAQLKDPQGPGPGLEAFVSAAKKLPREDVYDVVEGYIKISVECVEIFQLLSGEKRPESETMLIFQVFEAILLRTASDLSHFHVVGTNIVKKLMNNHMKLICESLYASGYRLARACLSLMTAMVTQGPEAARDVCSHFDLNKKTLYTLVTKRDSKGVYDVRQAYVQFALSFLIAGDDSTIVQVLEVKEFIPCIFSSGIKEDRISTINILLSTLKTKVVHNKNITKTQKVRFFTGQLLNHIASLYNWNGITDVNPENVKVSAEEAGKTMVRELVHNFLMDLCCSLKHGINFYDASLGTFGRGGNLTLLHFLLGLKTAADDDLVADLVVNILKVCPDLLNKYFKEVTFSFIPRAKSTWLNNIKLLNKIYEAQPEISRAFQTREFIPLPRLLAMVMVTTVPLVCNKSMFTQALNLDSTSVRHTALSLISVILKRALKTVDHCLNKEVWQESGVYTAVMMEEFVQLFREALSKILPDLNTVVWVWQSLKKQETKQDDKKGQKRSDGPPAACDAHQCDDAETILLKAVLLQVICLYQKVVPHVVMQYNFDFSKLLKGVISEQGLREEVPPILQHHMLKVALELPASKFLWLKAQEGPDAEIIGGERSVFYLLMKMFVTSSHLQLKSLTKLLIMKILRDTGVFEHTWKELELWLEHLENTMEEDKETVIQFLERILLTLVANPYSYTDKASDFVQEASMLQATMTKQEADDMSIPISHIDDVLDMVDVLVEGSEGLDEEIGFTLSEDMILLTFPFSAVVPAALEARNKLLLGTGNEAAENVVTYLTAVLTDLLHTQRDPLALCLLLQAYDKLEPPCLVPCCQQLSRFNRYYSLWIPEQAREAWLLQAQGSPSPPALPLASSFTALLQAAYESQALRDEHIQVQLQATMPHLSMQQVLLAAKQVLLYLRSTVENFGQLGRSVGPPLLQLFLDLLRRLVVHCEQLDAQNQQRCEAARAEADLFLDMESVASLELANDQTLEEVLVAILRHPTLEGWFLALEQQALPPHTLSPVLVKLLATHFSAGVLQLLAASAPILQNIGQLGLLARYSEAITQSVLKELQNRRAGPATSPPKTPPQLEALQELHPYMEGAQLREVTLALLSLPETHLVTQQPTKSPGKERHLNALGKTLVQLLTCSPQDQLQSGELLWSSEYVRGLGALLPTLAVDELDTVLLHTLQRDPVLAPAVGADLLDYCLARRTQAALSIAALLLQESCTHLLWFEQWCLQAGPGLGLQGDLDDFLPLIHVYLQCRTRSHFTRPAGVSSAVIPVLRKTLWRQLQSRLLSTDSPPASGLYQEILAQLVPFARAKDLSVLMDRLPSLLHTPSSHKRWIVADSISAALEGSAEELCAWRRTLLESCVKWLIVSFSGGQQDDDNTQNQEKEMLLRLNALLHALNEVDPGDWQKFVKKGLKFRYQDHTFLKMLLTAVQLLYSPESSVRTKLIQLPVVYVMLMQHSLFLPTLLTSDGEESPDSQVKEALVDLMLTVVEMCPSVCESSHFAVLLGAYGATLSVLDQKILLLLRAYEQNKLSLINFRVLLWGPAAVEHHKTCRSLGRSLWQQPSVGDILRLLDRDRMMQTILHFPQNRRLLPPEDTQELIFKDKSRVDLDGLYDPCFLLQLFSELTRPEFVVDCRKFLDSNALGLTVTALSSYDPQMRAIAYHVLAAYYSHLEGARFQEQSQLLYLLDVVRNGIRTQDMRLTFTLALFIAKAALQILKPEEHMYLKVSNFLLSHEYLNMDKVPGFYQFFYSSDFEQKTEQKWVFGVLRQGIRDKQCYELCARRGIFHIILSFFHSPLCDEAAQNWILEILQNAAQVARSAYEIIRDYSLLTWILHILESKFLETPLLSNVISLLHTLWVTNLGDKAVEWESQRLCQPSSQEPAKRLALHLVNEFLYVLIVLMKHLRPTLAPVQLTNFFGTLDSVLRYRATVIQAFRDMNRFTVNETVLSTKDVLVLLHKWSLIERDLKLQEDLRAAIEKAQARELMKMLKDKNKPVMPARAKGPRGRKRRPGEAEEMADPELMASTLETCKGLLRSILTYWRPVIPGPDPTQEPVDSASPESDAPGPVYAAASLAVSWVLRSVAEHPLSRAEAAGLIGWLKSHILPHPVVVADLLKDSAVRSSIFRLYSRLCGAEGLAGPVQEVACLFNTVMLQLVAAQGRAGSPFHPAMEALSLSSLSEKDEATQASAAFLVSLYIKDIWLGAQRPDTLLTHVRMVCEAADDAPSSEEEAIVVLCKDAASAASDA
UniProt Q9UDW1: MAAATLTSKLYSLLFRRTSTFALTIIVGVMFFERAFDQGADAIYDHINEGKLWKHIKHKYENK
UniProt Q8TEY7: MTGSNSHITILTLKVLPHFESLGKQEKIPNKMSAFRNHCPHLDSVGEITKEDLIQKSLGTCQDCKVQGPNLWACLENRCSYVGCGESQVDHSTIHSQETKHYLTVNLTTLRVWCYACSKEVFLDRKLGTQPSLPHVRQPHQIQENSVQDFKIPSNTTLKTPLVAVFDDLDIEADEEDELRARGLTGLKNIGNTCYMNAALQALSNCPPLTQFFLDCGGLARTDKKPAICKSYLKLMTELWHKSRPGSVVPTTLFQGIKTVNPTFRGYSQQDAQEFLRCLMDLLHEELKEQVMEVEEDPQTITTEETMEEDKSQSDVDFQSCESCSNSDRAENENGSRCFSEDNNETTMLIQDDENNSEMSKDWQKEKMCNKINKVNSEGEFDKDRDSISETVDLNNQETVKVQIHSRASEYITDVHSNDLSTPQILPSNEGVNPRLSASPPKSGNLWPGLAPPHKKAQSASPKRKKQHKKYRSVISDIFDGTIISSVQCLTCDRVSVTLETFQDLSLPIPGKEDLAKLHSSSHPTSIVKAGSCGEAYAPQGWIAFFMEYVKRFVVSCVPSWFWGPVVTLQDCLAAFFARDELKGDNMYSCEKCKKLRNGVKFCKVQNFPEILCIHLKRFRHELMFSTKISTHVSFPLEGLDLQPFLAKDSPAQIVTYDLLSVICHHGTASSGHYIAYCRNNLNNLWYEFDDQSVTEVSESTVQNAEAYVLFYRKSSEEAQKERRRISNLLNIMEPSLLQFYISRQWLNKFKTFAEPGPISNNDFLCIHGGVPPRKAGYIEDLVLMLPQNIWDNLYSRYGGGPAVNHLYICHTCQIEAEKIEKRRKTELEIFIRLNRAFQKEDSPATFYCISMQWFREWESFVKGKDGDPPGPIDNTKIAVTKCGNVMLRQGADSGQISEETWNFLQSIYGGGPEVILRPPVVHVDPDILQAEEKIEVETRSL
UniProt P55851: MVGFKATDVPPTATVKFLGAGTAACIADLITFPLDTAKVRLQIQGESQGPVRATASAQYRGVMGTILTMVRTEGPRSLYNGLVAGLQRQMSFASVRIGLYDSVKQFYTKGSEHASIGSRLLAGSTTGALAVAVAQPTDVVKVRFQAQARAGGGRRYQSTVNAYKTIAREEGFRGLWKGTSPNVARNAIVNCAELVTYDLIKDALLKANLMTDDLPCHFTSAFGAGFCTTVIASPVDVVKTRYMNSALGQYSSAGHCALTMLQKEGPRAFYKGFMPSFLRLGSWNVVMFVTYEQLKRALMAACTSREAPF
UniProt Q70CQ3: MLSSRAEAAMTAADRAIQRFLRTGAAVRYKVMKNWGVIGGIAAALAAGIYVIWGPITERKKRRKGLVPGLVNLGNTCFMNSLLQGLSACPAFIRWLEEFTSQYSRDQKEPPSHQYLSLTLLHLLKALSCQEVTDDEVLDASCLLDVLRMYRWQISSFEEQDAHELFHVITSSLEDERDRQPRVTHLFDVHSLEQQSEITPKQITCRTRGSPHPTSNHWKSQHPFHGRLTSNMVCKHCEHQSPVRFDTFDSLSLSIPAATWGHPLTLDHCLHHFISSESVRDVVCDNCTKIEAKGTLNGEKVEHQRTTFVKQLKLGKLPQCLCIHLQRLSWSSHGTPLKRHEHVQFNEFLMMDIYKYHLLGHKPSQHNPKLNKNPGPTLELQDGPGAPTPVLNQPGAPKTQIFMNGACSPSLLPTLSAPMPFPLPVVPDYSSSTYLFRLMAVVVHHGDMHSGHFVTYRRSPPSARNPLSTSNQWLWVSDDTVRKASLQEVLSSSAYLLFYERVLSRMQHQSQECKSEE
UniProt O94966: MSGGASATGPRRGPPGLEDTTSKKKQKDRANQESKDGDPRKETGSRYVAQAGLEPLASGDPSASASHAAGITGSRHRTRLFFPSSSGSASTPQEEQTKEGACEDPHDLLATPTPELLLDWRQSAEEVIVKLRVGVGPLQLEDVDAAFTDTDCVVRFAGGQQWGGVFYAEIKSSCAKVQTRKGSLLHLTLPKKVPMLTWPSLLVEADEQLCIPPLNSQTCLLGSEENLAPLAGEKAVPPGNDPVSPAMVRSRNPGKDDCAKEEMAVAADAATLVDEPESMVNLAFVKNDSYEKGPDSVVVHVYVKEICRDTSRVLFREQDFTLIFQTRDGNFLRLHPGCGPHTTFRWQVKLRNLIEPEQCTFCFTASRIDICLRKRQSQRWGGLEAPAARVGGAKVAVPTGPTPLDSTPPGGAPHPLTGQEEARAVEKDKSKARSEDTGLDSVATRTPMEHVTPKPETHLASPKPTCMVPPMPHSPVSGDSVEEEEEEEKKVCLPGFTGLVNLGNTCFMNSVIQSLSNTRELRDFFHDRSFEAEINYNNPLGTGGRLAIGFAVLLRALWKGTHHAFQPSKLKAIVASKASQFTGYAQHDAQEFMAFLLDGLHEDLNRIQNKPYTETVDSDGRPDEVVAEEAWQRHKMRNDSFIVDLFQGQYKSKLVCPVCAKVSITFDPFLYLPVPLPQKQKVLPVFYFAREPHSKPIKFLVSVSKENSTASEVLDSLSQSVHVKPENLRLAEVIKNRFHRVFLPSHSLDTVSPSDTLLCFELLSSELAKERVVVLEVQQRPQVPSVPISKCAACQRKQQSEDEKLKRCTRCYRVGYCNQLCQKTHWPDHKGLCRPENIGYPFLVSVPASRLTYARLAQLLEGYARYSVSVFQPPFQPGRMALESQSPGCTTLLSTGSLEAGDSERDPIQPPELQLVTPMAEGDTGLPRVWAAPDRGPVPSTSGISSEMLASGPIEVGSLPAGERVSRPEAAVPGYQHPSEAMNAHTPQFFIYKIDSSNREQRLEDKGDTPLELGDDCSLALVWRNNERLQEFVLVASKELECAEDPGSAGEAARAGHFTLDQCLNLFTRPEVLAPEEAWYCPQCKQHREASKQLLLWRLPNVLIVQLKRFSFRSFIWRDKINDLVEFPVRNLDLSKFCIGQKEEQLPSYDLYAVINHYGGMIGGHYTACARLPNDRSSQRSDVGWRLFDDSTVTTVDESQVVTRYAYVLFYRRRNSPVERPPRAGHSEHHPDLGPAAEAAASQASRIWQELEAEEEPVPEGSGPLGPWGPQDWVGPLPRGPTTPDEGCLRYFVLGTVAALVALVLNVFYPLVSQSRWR
UniProt P21796, whole entry, looked up: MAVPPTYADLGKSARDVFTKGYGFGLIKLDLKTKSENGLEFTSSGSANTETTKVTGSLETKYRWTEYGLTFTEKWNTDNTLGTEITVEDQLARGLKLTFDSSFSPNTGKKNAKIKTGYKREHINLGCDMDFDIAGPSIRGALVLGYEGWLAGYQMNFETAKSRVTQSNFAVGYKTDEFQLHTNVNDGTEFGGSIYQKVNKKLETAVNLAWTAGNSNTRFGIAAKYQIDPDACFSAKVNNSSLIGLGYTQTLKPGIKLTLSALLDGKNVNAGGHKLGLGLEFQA

How the values were obtained:
Experiment in all cases: log2 fold change, soluble protein after heating vs DMSO (PISA); higher = thermal stabilisation; K562 lysate, 10 uM; active = over 0.2 and 3.5 SD of the protein, either way, in both replicates (recomputed)
[1] = compound: CC(=O)c1cnc2ccc(-c3cc(Cl)c(O)c(Cl)c3)nc2c1N[C@H]1CC[C@H](CN(C)C)CC1
Procedure, shortened: (§1)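 To prepare the extract, K562 pellets were dounce-homogenised in PBS pH 7.4 with 1 mM MgCl2, giving crude material at 1 mg/mL protein. This was treated with 10 μM compound for 30 min, then heated in aliquots for 3 min over 48°C-58°C before pooling and addition of NP-40 to 0.5% at 4°C. Centrifugation at 21,000xg for 90 min left soluble protein in the supernatant, which TMTpro 16plex LC-MS/MS quantified with equalised channel sums. Results are log-two fold changes in thermal stability compared with solvent controls, from duplicates.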

ralimetinib = compound: CC(C)(C)Cn1c(N)nc2ccc(-c3[nH]c(C(C)(C)C)nc3-c3ccc(F)cc3)nc21 [ralimetinib]
Procedure, shortened: as §1

[2] = compound: CC(C)(O)CC(=O)NCCn1ccc2ncnc(Nc3ccc(Oc4cccc(C(F)(F)F)c4)c(Cl)c3)c21
Procedure, shortened: as §1

[3] = compound: CC(C)C1=C2N=C(C=C(N2N=C1)NCC3=CC=CC=C3)NCCCCCCN
Procedure, shortened: as §1

[4] = compound: CC1=C(C(CC(=O)N1)C2=CC=C(C=C2)C(F)(F)F)C(=O)NC3=C(C=C4C(=C3)C=NN4)F
Procedure, shortened: as §1

[5] = compound: CC1=C(C2=C(C=C1)C(=O)C3=CC=CC=C3N2CCCN)C
Procedure, shortened: as §1

[6] = compound: CC1=C(C=C(C=C1)NC(=O)C2=CC(=CC=C2)C(C)(C)C#N)NC3=CC4=C(C=C3)N=CN(C4=O)C
Procedure, shortened: as §1

[7] = compound: CC1=C(C=C(C=C1)NC(=O)C2=CC(=CC=C2)N(C)C)NC(=O)C3=CC=C(C=C3)O
Procedure, shortened: as §1

[8] = compound: CC1=CC=C(C=C1)SC2=C3C=C(SC3=CN=C2)C(=O)N
Procedure, shortened: as §1

vemurafenib = compound: CCCS(=O)(=O)Nc1ccc(F)c(C(=O)c2c[nH]c3ncc(-c4ccc(Cl)cc4)cc23)c1F [vemurafenib]
Procedure, shortened: as §1

[9] = compound: CCCS(=O)(=O)Nc1ccc(F)c(C(=O)c2c[nH]c3ncc(Cl)cc23)c1F
Procedure, shortened: as §1

[10] = compound: CC[C@@H]1C(=O)N(C)c2cnc(Nc3ccc(C(=O)NC4CCN(C)CC4)cc3OC)nc2N1C1CCCC1
Procedure, shortened: as §1

volasertib = compound: CC[C@@H]1C(=O)N(C)c2cnc(Nc3ccc(C(=O)N[C@H]4CC[C@H](N5CCN(CC6CC6)CC5)CC4)cc3OC)nc2N1C(C)C [volasertib]
Procedure, shortened: as §1

[11] = compound: CCn1c(C(=O)N(C2CC2)C2CC2)cc2c3c(ncn3C)c(Nc3cc(C)n(C)n3)nc21
Procedure, shortened: as §1

saracatinib = compound: CN1CCN(CCOc2cc(OC3CCOCC3)c3c(Nc4c(Cl)ccc5c4OCO5)ncnc3c2)CC1 [saracatinib]
Procedure, shortened: as §1

sotrastaurin = compound: CN1CCN(c2nc(C3=C(c4c[nH]c5ccccc45)C(=O)NC3=O)c3ccccc3n2)CC1 [sotrastaurin]
Procedure, shortened: as §1

barasertib = compound: CCN(CCCOc1ccc2c(Nc3cc(CC(=O)Nc4cccc(F)c4)[nH]n3)ncnc2c1)CCOP(=O)(O)O [barasertib]
Procedure, shortened: as §1

[12] = compound: CCn1cc(-c2ccnc3[nH]c(-c4cccc(CN(C)C)c4)cc23)c(-c2ccc(NC(=O)N(C)C)cc2)n1
Procedure, shortened: as §1

[13] = compound: CN1CCC(CNc2ccc3ncc(-c4cccc(OC(F)(F)F)c4)n3n2)CC1
Procedure, shortened: as §1

ibrutinib = compound: C=CC(=O)N1CCC[C@@H](n2nc(-c3ccc(Oc4ccccc4)cc3)c3c(N)ncnc32)C1 [ibrutinib]
Procedure, shortened: as §1

Measured: log2 fold change

UNC13B isoform 2 (UniProt O14795)
inactive: [1] -0.054 | ralimetinib 0.003 | [2] -0.032 | [3] -0.08 | [4] -0.089 | [5] -0.061 | [6] -0.032 | [7] 0.024 | [8] 0.034 | vemurafenib 0.143 | [9] -0.034 | [10] 0.027 | volasertib 0.071 | [11] 0.014 | saracatinib 0.002 | sotrastaurin 0.052

VASN (UniProt Q6EMK4)
inactive: ralimetinib 0.332 | [2] 0.172 | [3] -0.004 | [5] -0.255 | [7] -0.295 | [10] 0.046 | [11] 0.023 | saracatinib 0.065

VDAC2 (UniProt Q5JSD1)
inactive: [1] -0.01 | ralimetinib 0.01 | [2] -0.061 | [3] -0.031 | [4] -0.02 | [5] -0.048 | [6] 0.031 | [7] 0.043 | [8] -0.074 | vemurafenib 0.047 | [9] -0.005 | barasertib -0.066 | [10] 0.113 | volasertib -0.023 | [11] -0.132 | [12] 0.059 | [13] -0.03 | saracatinib -0.012 | sotrastaurin 0.018

UNKL (UniProt E9PDK2)
inactive: ibrutinib -0.191 | [5] -0.086 | [6] 0.025 | vemurafenib -0.118 | barasertib 0.047 | [10] -0.075 | saracatinib 0.002 | sotrastaurin -0.05

UHRF2 (UniProt Q96PU4)
inactive: [6] 0.026 | vemurafenib 0.095 | sotrastaurin -0.683

VDAC2 isoform 2 (UniProt P45880)
inactive: [1] 0.007 | ralimetinib -0.004 | [2] -0.03 | [3] 0.01 | [4] -0.007 | [5] 0.008 | [6] 0.03 | [7] -0.017 | [8] -0.002 | vemurafenib 0.02 | [9] -0.006 | barasertib -0.02 | [10] 0.034 | volasertib 0.054 | [11] -0.03 | [12] 0.006 | [13] 0.002 | saracatinib 0 | sotrastaurin -0.023

URB1 (UniProt O60287)
inactive: [1] -0.214 | ralimetinib -0.013 | [2] -0.019 | [3] -0.059 | [4] -0.043 | [5] -0.071 | [6] 0.007 | [7] 0.002 | [8] 0.293 | vemurafenib 0.094 | [9] -0.046 | [10] -0.038 | volasertib 0.211 | [11] 0.012 | [12] -0.353 | [13] 0.013 | saracatinib 0.114 | sotrastaurin 0.036

UQCR10 (UniProt Q9UDW1)
inactive: [1] 0.014 | ralimetinib -0.01 | [2] 0.034 | [3] 0.037 | [4] -0.017 | [5] -0.029 | [6] 0.074 | [7] -0.008 | [8] 0.046 | vemurafenib -0.043 | [9] -0.002 | [10] 0.005 | volasertib 0.057 | [11] 0.053 | [12] -0.091 | [13] 0.167 | saracatinib 0.042 | sotrastaurin 0.06

UNC119 (UniProt Q13432)
inactive: ralimetinib -0.001 | [2] -0.081 | [3] 0.183 | [4] -0.058 | [5] 0.003 | [6] 0.037 | [7] 0.049 | [11] -0.035 | saracatinib -0.09 | sotrastaurin -0.109

ULK1 (UniProt O75385)
inactive: [1] -0.02 | ralimetinib -0.285 | [2] -0.1 | [3] 0.055 | [5] -0.029 | [6] -0.022 | [7] 0.306 | [8] -0.086 | vemurafenib -0.033 | [9] 0.137 | [10] -0.099 | volasertib 0.033 | [11] 0.041 | [12] 0.06 | [13] 0.099 | saracatinib 0.058 | sotrastaurin -0.284

USP54 (UniProt Q70EL1)
inactive: [6] -0.007 | sotrastaurin 0.041

USP37 (UniProt Q86T82)
inactive: [6] 0.038 | vemurafenib -0.188 | [10] 0.09 | sotrastaurin -0.046

UQCRB (UniProt E5RHG9)
inactive: [5] -0.051 | saracatinib 0.022

USP33 (UniProt Q8TEY7)
inactive: ralimetinib 0.097 | [2] -0.07 | [4] 0.009 | [5] -0.109 | [6] -0.155 | [7] 0.005 | [11] -0.016 | [12] -0.141 | [13] 0.13 | saracatinib 0.259 | sotrastaurin 0.26

VEGFA isoform 14 (UniProt P15692)
inactive: [6] -0.036 | [12] 0.09 | [13] 0.05 | sotrastaurin -0.077

UCP2 (UniProt P55851)
inactive: ralimetinib 0.091 | [2] -0.081 | [4] 0.073 | [6] -0.045 | [7] -0.1 | vemurafenib 0.09 | [11] -0.024 | sotrastaurin -0.001

USP30 (UniProt Q70CQ3)
inactive: ralimetinib -0.003 | [2] 0.024 | [3] 0.031 | [5] 0.051 | [6] 0.021 | [7] 0.045 | [11] -0.108 | [12] -0.077 | [13] -0.154 | saracatinib -0.135 | sotrastaurin 0.006

Two records picked at random from the list so far:
UQCRB (UniProt E5RHG9)
inactive: [5] -0.051 | saracatinib 0.022

USP33 (UniProt Q8TEY7)
inactive: ralimetinib 0.097 | [2] -0.07 | [4] 0.009 | [5] -0.109 | [6] -0.155 | [7] 0.005 | [11] -0.016 | [12] -0.141 | [13] 0.13 | saracatinib 0.259 | sotrastaurin 0.26

Further entries.

USP19 isoform 4 (UniProt O94966)
inactive: [1] 0.013 | ralimetinib -0.096 | [2] -0.06 | [3] 0.054 | [5] -0.1 | [7] 0.038 | [8] -0.147 | vemurafenib 0 | [9] 0.002 | [10] -0.14 | volasertib -0.039 | [11] -0.055 | saracatinib -0.045

VGF (UniProt O15240)
inactive: [3] -0.308 | [5] -0.135 | vemurafenib 0.051 | [10] -0.051 | saracatinib 0.056

USP40 isoform 3 (UniProt Q9NVE5)
inactive: ralimetinib 0.016 | [2] 0.212 | [3] 0.163 | [4] 0.066 | [5] -0.029 | [6] 0.054 | [7] -0.076 | [11] -0.151 | saracatinib 0.053 | sotrastaurin -0.035

VDAC1 (UniProt P21796)
inactive: [1] 0.017 | ralimetinib -0.008 | [2] -0.041 | [3] -0.008 | [4] -0.021 | [5] -0.009 | [6] 0.011 | [7] -0.013 | [8] 0.009 | vemurafenib 0.003 | [9] -0.005 | barasertib -0.034 | [10] 0.056 | volasertib 0.038 | [11] -0.023 | [12] -0.002 | [13] 0.024 | saracatinib 0.011 | sotrastaurin 0.012

USP36 (UniProt Q9P275)
inactive: [1] -0.242 | ralimetinib 0.061 | [2] 0.045 | [4] -0.054 | [6] -0.093 | [7] 0.156 | [8] -0.102 | vemurafenib 0.255 | [9] 0 | [10] 0.015 | volasertib -0.097 | [11] -0.041 | [12] 0.036 | [13] -0.125 | sotrastaurin 0.007

VAV2 (UniProt P52735)
inactive: [1] 0.04 | [5] -0.366 | [8] 0.046 | vemurafenib 0.042 | [9] 0.116 | volasertib -0.117 | saracatinib 0.058
